This is one part of the list.
Experiments:
Assay in all cases: log2 fold change, soluble protein after heating vs DMSO (PISA); higher = thermal stabilisation; K562 cells, 10 uM, 30 min; active = over 0.2 and 3.5 SD of the protein, either way, in both replicates (recomputed)
[1] = compound: CC1=C(C=C(C=C1)NC(=O)C2=CC(=CC=C2)C(C)(C)C#N)NC3=CC4=C(C=C3)N=CN(C4=O)C
How it was run: (§1)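 Soluble protein was quantified by TMTpro 16plex LC-MS/MS after channel sums were equalised. It was obtained as the supernatant after 21,000xg for 90 min from pooled aliquots of K562 cells (2×10^6 cells/mL, 10 μM compound, 30 min) heated for 3 min across 48°C-58°C and extracted in PBS with 0.5% NP-40 at 4°C. Thermal stability values are relative to control samples and come from duplicates. They are given as log2 fold changes.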

The chains behind the UniProt entries cited, without tags or fusion partners. Where a name states a change or a piece, a line headed by the entry shows the natural chain unless it says otherwise.
UniProt Q13724: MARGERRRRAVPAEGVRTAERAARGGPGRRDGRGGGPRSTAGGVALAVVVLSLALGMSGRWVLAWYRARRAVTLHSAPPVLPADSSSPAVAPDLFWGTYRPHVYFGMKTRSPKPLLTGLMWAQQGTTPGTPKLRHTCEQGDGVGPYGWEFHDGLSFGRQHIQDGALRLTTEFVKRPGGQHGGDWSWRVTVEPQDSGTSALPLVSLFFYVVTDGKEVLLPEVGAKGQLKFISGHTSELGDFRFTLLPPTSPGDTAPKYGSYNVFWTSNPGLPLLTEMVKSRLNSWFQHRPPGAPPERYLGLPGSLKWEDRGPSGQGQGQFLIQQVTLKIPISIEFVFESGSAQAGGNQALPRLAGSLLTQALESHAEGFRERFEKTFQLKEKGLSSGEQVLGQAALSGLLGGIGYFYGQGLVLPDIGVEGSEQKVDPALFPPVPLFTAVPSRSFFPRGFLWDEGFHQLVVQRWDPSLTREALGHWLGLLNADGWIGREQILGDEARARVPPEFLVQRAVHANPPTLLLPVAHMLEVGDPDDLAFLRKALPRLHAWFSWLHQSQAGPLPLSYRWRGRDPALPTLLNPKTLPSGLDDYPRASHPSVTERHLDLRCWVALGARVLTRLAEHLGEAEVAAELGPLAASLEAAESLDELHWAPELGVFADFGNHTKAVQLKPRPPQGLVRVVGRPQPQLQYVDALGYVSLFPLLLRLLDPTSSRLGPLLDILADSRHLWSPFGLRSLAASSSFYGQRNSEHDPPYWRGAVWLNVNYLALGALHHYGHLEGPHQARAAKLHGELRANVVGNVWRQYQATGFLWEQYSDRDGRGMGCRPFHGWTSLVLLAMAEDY
UniProt Q9HC36: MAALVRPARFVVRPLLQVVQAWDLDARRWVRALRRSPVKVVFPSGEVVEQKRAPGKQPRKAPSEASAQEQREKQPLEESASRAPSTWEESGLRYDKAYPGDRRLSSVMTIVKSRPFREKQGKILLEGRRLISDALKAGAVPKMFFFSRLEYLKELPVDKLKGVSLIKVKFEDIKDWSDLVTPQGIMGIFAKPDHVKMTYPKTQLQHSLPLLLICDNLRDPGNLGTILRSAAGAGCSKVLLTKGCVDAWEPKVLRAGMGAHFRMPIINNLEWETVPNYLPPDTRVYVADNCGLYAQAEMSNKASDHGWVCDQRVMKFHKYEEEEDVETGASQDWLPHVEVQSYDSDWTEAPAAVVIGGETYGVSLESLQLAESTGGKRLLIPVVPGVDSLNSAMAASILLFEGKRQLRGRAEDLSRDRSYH
UniProt Q8NHP6: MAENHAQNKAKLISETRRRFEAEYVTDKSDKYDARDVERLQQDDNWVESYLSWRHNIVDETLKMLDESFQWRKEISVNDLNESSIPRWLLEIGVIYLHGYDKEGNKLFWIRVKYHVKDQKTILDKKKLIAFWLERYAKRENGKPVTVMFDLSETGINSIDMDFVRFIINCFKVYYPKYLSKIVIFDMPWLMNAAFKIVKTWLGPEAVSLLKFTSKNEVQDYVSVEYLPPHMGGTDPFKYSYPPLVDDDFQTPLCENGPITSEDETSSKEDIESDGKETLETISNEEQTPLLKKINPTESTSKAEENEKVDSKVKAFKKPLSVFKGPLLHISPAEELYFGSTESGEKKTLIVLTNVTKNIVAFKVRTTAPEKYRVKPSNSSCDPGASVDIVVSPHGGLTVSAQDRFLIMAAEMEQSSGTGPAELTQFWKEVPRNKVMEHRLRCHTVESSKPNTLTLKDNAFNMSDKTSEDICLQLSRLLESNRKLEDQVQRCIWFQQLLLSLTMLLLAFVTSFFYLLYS
UniProt Q00013: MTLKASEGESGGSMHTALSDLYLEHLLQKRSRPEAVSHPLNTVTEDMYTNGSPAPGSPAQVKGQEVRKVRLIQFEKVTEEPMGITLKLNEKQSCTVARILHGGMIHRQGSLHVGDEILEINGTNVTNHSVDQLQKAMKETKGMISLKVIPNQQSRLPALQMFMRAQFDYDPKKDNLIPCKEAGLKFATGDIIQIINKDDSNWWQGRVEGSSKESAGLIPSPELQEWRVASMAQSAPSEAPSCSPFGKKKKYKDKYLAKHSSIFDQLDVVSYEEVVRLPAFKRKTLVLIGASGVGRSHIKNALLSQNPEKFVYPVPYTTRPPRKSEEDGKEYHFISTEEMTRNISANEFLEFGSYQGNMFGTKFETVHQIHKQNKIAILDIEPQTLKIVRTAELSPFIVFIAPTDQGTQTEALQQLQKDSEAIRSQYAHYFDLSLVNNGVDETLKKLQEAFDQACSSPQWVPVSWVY
UniProt Q9NYP9: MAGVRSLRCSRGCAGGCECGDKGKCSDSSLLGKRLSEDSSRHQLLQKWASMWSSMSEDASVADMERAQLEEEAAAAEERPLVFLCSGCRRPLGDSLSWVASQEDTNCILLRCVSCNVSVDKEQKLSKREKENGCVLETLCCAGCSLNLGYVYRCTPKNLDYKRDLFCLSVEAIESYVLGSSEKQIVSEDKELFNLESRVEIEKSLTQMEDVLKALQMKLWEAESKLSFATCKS
UniProt Q8N4V1: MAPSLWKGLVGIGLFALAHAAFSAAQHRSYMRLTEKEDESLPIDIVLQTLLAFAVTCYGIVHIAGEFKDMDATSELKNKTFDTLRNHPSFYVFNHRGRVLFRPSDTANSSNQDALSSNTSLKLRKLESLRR
UniProt O75352: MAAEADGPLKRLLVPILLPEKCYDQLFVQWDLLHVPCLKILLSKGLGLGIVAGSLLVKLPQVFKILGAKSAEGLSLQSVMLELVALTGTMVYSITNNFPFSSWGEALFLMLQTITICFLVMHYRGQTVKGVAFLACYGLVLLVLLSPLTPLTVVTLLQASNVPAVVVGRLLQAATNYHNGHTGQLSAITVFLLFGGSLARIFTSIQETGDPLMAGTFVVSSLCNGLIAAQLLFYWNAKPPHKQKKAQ
UniProt P25325: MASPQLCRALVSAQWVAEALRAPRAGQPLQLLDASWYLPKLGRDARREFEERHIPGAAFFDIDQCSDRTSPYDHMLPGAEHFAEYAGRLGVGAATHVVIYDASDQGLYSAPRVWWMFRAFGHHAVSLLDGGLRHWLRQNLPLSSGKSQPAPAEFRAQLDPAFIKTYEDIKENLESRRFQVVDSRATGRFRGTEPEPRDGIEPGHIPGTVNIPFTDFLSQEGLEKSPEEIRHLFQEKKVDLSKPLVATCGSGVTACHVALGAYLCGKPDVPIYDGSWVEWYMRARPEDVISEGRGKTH
UniProt O96007: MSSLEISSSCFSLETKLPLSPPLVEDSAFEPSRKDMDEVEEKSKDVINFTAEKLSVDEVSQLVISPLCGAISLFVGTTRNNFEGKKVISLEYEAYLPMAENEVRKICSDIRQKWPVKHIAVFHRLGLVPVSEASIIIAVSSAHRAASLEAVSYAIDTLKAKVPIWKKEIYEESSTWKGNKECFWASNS
UniProt Q567V2: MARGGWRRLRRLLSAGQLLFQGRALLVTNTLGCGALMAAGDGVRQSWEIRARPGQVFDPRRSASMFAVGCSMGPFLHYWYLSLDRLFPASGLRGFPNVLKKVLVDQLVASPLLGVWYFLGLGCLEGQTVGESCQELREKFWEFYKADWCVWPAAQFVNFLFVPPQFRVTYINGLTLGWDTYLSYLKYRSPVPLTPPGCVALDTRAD
UniProt P29372, whole entry, looked up: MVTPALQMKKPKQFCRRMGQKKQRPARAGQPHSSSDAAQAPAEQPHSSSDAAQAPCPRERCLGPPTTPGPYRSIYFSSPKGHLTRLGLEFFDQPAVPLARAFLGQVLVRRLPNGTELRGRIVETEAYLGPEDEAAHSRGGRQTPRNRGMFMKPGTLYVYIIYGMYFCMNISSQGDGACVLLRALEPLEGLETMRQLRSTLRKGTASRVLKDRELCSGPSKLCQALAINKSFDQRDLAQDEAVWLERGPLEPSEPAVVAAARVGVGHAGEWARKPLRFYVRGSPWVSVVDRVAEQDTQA
UniProt Q99547: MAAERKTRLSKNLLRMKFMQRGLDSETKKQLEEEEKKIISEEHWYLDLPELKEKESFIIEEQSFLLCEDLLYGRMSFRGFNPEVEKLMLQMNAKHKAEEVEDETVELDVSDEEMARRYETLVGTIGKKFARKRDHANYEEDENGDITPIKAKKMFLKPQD
UniProt Q8TAP9: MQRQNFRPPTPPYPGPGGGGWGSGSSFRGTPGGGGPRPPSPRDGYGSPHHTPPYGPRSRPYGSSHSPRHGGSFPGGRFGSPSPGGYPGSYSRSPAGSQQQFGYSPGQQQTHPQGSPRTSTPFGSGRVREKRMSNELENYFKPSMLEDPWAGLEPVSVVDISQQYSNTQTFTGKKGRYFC
UniProt O00566: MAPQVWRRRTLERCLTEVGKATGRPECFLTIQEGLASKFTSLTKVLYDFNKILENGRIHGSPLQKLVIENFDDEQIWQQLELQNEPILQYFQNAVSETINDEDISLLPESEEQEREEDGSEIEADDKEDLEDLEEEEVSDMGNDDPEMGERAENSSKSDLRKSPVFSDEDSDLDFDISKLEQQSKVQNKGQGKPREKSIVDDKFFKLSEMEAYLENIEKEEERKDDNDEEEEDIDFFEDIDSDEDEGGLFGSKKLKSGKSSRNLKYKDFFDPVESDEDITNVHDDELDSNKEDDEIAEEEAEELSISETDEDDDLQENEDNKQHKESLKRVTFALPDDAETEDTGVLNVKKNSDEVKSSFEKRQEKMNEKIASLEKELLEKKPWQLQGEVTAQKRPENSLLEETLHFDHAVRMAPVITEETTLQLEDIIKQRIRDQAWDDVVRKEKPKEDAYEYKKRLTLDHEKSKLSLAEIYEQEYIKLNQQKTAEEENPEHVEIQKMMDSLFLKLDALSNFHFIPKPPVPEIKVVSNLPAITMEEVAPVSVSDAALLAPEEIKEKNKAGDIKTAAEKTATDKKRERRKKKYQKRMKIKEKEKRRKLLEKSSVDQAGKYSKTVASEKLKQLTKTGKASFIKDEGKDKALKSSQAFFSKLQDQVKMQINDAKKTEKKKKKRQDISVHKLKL
UniProt Q9BV20: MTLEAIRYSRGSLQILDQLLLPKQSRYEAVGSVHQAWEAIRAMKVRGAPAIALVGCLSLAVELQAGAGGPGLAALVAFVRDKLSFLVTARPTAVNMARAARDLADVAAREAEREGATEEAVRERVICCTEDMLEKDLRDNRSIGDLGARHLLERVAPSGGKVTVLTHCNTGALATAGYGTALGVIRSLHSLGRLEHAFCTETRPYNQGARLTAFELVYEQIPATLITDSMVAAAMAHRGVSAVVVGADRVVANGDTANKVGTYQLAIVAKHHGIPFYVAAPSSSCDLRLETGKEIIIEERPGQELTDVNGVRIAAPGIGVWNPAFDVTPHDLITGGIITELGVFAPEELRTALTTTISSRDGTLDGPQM
UniProt Q96EY8: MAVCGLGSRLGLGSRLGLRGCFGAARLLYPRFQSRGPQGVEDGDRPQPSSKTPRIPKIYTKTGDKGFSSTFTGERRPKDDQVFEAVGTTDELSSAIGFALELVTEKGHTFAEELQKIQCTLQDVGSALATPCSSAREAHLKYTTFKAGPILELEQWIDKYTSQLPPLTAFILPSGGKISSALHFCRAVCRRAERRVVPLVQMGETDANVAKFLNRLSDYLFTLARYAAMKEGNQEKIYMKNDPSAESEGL
UniProt Q5TGZ0: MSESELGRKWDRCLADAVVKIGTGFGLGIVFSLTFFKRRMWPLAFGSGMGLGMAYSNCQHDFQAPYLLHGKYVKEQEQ
UniProt Q13015: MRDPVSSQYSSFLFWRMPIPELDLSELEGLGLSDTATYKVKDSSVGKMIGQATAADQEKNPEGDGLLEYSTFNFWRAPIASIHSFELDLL
UniProt Q14149: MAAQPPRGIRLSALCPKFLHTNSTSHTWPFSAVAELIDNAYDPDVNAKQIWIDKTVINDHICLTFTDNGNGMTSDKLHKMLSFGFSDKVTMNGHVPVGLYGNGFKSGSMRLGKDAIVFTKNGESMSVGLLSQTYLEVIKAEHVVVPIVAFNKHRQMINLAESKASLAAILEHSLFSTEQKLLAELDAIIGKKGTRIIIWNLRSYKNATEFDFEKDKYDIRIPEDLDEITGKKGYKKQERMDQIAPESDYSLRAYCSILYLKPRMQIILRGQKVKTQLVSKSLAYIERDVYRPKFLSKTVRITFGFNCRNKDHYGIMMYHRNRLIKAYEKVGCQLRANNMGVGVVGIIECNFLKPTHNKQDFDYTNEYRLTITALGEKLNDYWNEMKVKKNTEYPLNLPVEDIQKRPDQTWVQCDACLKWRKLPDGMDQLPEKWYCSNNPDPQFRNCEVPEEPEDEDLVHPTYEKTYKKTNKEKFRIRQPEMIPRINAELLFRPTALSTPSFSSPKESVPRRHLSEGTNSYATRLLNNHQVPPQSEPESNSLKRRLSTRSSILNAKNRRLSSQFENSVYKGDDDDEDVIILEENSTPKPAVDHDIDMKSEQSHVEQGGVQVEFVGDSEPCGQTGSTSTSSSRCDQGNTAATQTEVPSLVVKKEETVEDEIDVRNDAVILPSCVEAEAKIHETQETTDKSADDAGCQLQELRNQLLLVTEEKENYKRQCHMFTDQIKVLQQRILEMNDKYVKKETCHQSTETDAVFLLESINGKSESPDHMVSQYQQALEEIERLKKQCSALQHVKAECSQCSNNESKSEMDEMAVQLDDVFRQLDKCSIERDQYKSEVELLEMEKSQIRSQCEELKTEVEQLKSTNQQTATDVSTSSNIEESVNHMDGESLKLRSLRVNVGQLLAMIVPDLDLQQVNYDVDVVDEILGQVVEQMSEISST

[2] = compound: CC1=C(C=C(C=C1)NC(=O)C2=CC(=CC=C2)N(C)C)NC(=O)C3=CC=C(C=C3)O
How it was run: as §1

[3] = compound: CC1=CC=C(C=C1)SC2=C3C=C(SC3=CN=C2)C(=O)N
How it was run: as §1

[4] = compound: CC1=NC(=CC=C1)C2=C(N=C(N2)C(C)(C)C)C3=CC4=NC=CN=C4C=C3
How it was run: as §1

[5] = compound: CCCCN(Cc1ccc(C(=O)NO)cc1)C(=O)Nc1ccccc1 [Nexturastat A]
How it was run: as §1

[6] = compound: CCCS(=O)(=O)Nc1ccc(F)c(C(=O)c2c[nH]c3ncc(-c4ccc(Cl)cc4)cc23)c1F [vemurafenib]
How it was run: as §1

[7] = compound: CCCS(=O)(=O)Nc1ccc(F)c(C(=O)c2c[nH]c3ncc(Cl)cc23)c1F
How it was run: as §1

[8] = compound: CCCc1cc(C)[nH]c(=O)c1CNC(=O)c1cc(-c2ccnc(N3CCN(C)CC3)c2)cc2c1cnn2C(C)C
How it was run: as §1

[9] = compound: CCN(CC)Cc1ccc2cc(COC(=O)Nc3ccc(C(=O)NO)cc3)ccc2c1 [givinostat]
How it was run: as §1

[10] = compound: CCN(CCCOc1ccc2c(Nc3cc(CC(=O)Nc4cccc(F)c4)[nH]n3)ncnc2c1)CCOP(=O)(O)O [barasertib]
How it was run: as §1

Measured: log2 fold change

MOGS (UniProt Q13724)
inactive: [1] -0.017 | [2] -0.007 | [3] -0.005 | [4] -0.005 | [5] -0.003 | [6] -0.027 | [7] 0.008 | [8] 0.038 | [9] 0.01 | [10] 0.017

MRM3 (UniProt Q9HC36)
inactive: [1] -0.034 | [2] 0.111 | [3] 0.022 | [4] -0.114 | [5] 0.304 | [6] -0.141 | [7] -0.078 | [8] 0.071 | [9] 0.092 | [10] -0.111

MOSPD2 (UniProt Q8NHP6)
inactive: [1] 0.015 | [2] -0.027 | [3] -0.01 | [4] -0.011 | [5] 0.024 | [6] 0.054 | [7] -0.006 | [8] -0.056 | [9] -0.022 | [10] 0.003

MPP1 (UniProt Q00013)
inactive: [1] 0.117 | [2] -0.052 | [3] 0.043 | [4] 0.025 | [5] 0.002 | [6] 0.029 | [7] 0.04 | [8] 0.053 | [9] 0.062 | [10] 0.034

MON2 isoform 5 (UniProt Q7Z3U7)
inactive: [1] -0.002 | [2] -0.009 | [3] -0.036 | [4] 0.018 | [5] 0 | [6] 0.017 | [7] 0.085 | [8] 0.046 | [9] 0.029 | [10] 0.039

MRPL40 (UniProt Q9NQ50)
inactive: [1] 0.102 | [2] 0.008 | [3] -0.083 | [4] -0.061 | [5] 0.083 | [6] -0.068 | [7] -0.135 | [8] 0.013 | [9] -0.033 | [10] -0.09

MIS18A (UniProt Q9NYP9)
inactive: [1] 0.006 | [2] -0.021 | [3] 0.008 | [4] 0.064 | [5] 0.048 | [6] 0.03 | [7] 0.062 | [8] -0.01 | [9] -0.035 | [10] 0.026

MRPL41 (UniProt Q8IXM3)
inactive: [1] -0.02 | [2] -0.037 | [3] -0.077 | [4] 0 | [5] 0.26 | [6] -0.174 | [7] -0.068 | [8] 0.029 | [9] -0.078 | [10] 0.007

MMGT1 isoform 2 (UniProt Q8N4V1)
inactive: [1] 0.028 | [2] 0 | [3] -0.008 | [4] 0.011 | [5] 0.004 | [6] 0.025 | [7] 0.038 | [8] -0.084 | [9] -0.009 | [10] 0.015

MPDU1 (UniProt O75352)
inactive: [1] 0.024 | [2] 0.006 | [3] 0.091 | [4] -0.189 | [5] -0.014 | [6] 0.01 | [7] 0 | [8] -0.12 | [9] 0.072 | [10] 0.019

MIOS (UniProt Q9NXC5)
inactive: [1] 0.031 | [2] 0.016 | [3] -0.021 | [4] -0.044 | [5] 0.132 | [6] -0.024 | [7] -0.021 | [8] -0.014 | [9] 0.008 | [10] 0

MPST isoform 2 (UniProt P25325)
inactive: [1] 0.058 | [2] -0.072 | [3] 0.069 | [4] 0.026 | [5] -0.075 | [6] 0.07 | [7] 0.066 | [8] 0.126 | [9] -0.008 | [10] 0.049

MOCS2 (UniProt O96007)
inactive: [1] -0.001 | [2] -0.013 | [3] 0.001 | [4] 0.003 | [5] -0.007 | [6] 0.033 | [7] -0.02 | [8] -0.034 | [9] -0.005 | [10] 0.016

MRPL28 (UniProt Q13084)
inactive: [1] 0.028 | [2] -0.034 | [3] -0.072 | [4] -0.021 | [5] 0.085 | [6] -0.069 | [7] -0.007 | [8] 0.15 | [9] -0.026 | [10] -0.046

MRPL18 (UniProt Q9H0U6)
inactive: [1] 0.057 | [2] -0.048 | [3] -0.048 | [4] -0.112 | [5] 0.21 | [6] -0.197 | [7] -0.059 | [8] 0.089 | [9] 0.049 | [10] -0.022

MPV17L2 (UniProt Q567V2)
inactive: [1] -0.022 | [2] 0.028 | [3] -0.027 | [4] 0.091 | [5] -0.145 | [6] 0.059 | [7] -0.037 | [8] 0.014 | [9] -0.035 | [10] -0.012

MPG (UniProt P29372)
inactive: [1] -0.011 | [2] 0.012 | [3] 0.015 | [4] 0.051 | [5] 0.086 | [6] -0.007 | [7] 0 | [8] -0.002 | [9] 0.017 | [10] -0.002

MRPL33 (UniProt O75394)
inactive: [1] 0.107 | [2] -0.1 | [3] -0.044 | [4] 0.006 | [5] 0.197 | [6] -0.003 | [7] 0.063 | [8] 0.017 | [9] 0.012 | [10] -0.066

MPHOSPH6 (UniProt Q99547)
inactive: [1] 0.009 | [2] 0.02 | [3] -0.1 | [4] -0.053 | [5] 0.185 | [6] -0.045 | [7] 0.018 | [8] 0.001 | [9] 0.12 | [10] 0

MRPL39 (UniProt Q9NYK5)
inactive: [1] 0.028 | [2] -0.049 | [3] -0.076 | [4] -0.048 | [5] 0.142 | [6] -0.029 | [7] 0.008 | [8] -0.067 | [9] -0.002 | [10] -0.007

Copied from above (7 entries):
MOSPD2 (UniProt Q8NHP6)
inactive: [1] 0.015 | [2] -0.027 | [3] -0.01 | [4] -0.011 | [5] 0.024 | [6] 0.054 | [7] -0.006 | [8] -0.056 | [9] -0.022 | [10] 0.003

MPP1 (UniProt Q00013)
inactive: [1] 0.117 | [2] -0.052 | [3] 0.043 | [4] 0.025 | [5] 0.002 | [6] 0.029 | [7] 0.04 | [8] 0.053 | [9] 0.062 | [10] 0.034

MON2 isoform 5 (UniProt Q7Z3U7)
inactive: [1] -0.002 | [2] -0.009 | [3] -0.036 | [4] 0.018 | [5] 0 | [6] 0.017 | [7] 0.085 | [8] 0.046 | [9] 0.029 | [10] 0.039

MRPL40 (UniProt Q9NQ50)
inactive: [1] 0.102 | [2] 0.008 | [3] -0.083 | [4] -0.061 | [5] 0.083 | [6] -0.068 | [7] -0.135 | [8] 0.013 | [9] -0.033 | [10] -0.09

MIS18A (UniProt Q9NYP9)
inactive: [1] 0.006 | [2] -0.021 | [3] 0.008 | [4] 0.064 | [5] 0.048 | [6] 0.03 | [7] 0.062 | [8] -0.01 | [9] -0.035 | [10] 0.026

MRPL41 (UniProt Q8IXM3)
inactive: [1] -0.02 | [2] -0.037 | [3] -0.077 | [4] 0 | [5] 0.26 | [6] -0.174 | [7] -0.068 | [8] 0.029 | [9] -0.078 | [10] 0.007

MMGT1 isoform 2 (UniProt Q8N4V1)
inactive: [1] 0.028 | [2] 0 | [3] -0.008 | [4] 0.011 | [5] 0.004 | [6] 0.025 | [7] 0.038 | [8] -0.084 | [9] -0.009 | [10] 0.015

The listing continues:

MPLKIP (UniProt Q8TAP9)
inactive: [1] -0.052 | [2] -0.06 | [3] -0.048 | [4] -0.019 | [5] -0.028 | [6] -0.033 | [7] -0.079 | [8] -0.294 | [9] 0.055 | [10] -0.073

MPHOSPH10 (UniProt O00566)
inactive: [1] 0.052 | [2] -0.01 | [3] -0.031 | [4] -0.079 | [5] 0.098 | [6] -0.041 | [7] 0.009 | [8] 0.047 | [9] 0.087 | [10] -0.107

MRI1 (UniProt Q9BV20)
inactive: [1] -0.022 | [2] -0.03 | [3] -0.008 | [4] 0.013 | [5] -0.051 | [6] 0.03 | [7] 0.026 | [8] -0.037 | [9] 0.009 | [10] 0.019

MMAB (UniProt Q96EY8)
inactive: [1] -0.023 | [2] -0.009 | [3] 0.031 | [4] 0.005 | [5] -0.061 | [6] -0.001 | [7] -0.002 | [8] 0.011 | [9] 0.006 | [10] 0.017

MICOS10 (UniProt Q5TGZ0)
inactive: [1] 0.171 | [2] -0.177 | [3] 0.148 | [4] -0.002 | [5] -0.218 | [6] 0.067 | [7] 0.049 | [8] -0.106 | [9] -0.168 | [10] 0.137

MLLT11 (UniProt Q13015)
inactive: [1] -0.034 | [2] 0.026 | [3] -0.01 | [4] -0.05 | [5] -0.019 | [6] 0.34 | [7] 0.145 | [8] 0.144 | [9] 0.043 | [10] 0.074

MRPL46 (UniProt Q9H2W6)
inactive: [1] 0.061 | [2] -0.044 | [3] -0.009 | [4] -0.064 | [5] 0.076 | [6] -0.061 | [7] -0.006 | [8] 0.009 | [9] -0.003 | [10] -0.008

MORC3 (UniProt Q14149)
inactive: [1] -0.02 | [2] -0.06 | [3] -0.025 | [4] 0.059 | [5] -0.296 | [6] 0.095 | [7] 0.032 | [8] 0.11 | [9] -0.193 | [10] 0.102
